The values that follow come from US20190269771A1, “PEPTIDE MIMOTOPE THAT INDUCES AN IMMUNE RESPONSE AGAINST MYCOBACTERIUM TUBERCULOSIS LIPOARABINOMANNAN (LAM)” (priority 2017, published 2019).

For the series, the system named is CS-40 mAb. Description: Biopanning of 12-mer phage display library with CS-40. The class given is binding, mouse. The conditions noted are these: after the fifth panning cycle, 10 randomly selected phages.

Regarding HSFKWLDSPRLR [HS peptide], the “share of the sequenced phages” value is 70%. For the sequence SGVYKVAYDWQH [SG peptide], the “share of the sequenced phages” value is 30%.
